Test results taken from PMC12170873, “The Spc105/Kre28 complex promotes mitotic error correction by outer kinetochore recruitment of Ipl1/Sli15” (The EMBO Journal, 2025).
No constants are given. Whether binding was seen depends on the method and setting. Binding seen in cells or lysates may run through a third protein. Here binding means that the protein was enriched with, or labelled near, the bait; the list need not be complete. A no says only that the protein was not detected with the bait. Tags and fused reporters may be left off the sequences shown. Blank lines part the entries; values can stand above or below the binder they belong to.

Target: T1, Spc105-TurboID (S. cerevisiae) (UniProt P53148)
T1 sequence: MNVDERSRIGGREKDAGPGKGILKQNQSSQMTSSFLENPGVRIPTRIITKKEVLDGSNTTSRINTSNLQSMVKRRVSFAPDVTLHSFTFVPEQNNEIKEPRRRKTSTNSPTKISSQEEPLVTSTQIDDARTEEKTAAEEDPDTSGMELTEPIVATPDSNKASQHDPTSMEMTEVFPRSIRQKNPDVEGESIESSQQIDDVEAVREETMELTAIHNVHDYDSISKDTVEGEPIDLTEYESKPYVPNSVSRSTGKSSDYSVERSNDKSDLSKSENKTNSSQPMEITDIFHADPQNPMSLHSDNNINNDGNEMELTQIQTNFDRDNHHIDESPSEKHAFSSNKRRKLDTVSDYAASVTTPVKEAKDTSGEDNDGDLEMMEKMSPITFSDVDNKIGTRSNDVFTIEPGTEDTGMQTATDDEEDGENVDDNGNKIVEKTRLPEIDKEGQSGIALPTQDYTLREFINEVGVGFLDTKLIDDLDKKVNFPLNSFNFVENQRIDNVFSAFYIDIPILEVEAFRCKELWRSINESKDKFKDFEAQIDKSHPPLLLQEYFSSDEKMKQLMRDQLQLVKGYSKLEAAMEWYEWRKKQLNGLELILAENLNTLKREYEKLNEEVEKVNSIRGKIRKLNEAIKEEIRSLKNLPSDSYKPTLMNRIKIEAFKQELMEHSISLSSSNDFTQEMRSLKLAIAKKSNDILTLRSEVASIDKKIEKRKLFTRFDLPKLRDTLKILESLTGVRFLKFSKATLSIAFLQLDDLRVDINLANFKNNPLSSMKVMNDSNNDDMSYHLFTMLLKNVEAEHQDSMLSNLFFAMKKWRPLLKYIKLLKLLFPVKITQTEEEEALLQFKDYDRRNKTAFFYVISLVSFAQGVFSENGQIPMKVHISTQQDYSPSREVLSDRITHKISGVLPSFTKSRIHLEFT
Experiment: proximity labelling; in vivo biotinylation by Spc105-TurboID in yeast; streptavidin-sepharose purification from lysates with SDS washes; anti-Flag blot of Flag-tagged candidates

- binding: binds
B1: Sli15-6xFlag (protein, UniProt P38283 1-698)
chain: MDWAIKAARKKTQRKPGSTRSIIETLDDLNNLTTDAHSEINQRLYESSEWLRNNVYMNTLKYEDKKMEESLISPENTHNKMDVEFPKMKGEYELSNSQNDAAKDVTKTPRNGLHNDKSITPKSLRRKEVTEGMNRFSIHDTNKSPVEPLNSVKVDANESEKSSPWSPYKVEKVLRESSKTSESPINTKRFDNQTWAAKEEMENEPILQALKKAESVKVKPPPNSGIARSQRRSNMFVPLPNKDPLIIQHIPPTKSSGSIPKVRTVKESPIAFKKKSTINSPAIRAVENSDTAGSTKASSVFDRLSSIPTKSFENKISRGNVGHKYSSSSIDLTGSPMKKVSQKFKSINSTDTDMQEALRDIFSVKNKITKNNSPKGKNSRKSSIPRFDKTSLKLTTHKKLAIIAEQKKKSKHSSDVHKTGSRPHSISPTKISVDSSSPSKEVKNYYQSPVRGYLRPTKASISPNKNKNLTTSQTPHRLKIKEKTLRKLSPNIADISKPESRKSKNYRLTNLQLLPPAEAERDDLKKKFDKRLSGIMRSQQEHHRRKQEKQKRMSHLEQDLKKQTSFSNDYKDIRLKESLAPFDNHVRDTINKNTAFSTDNILATINTVDHREIIGNVTPKIASVNDSLPEINTDSEDEASVTLAAWAKSPYLQEQLIRQQDINPQTIFGPIPPLHTDEIFPNPRLNRLKPRQIVPKRS

- binding: no binding
B2: Flag-tagged Cin8 (nuclear kinesin-5 motor protein) (protein, UniProt P27895 1-1000)
chain: MPAENQNTGQDRSSNSISKNGNSQVGCHTVPNEELNITVAVRCRGRNEREISMKSSVVVNVPDITGSKEISINTTGDTGITAQMNAKRYTVDKVFGPGASQDLIFDEVAGPLFQDFIKGYNCTVLVYGMTSTGKTYTMTGDEKLYNGELSDAAGIIPRVLLKLFDTLELQQNDYVVKCSFIELYNEELKDLLDSNSNGSSNTGFDGQFMKKLRIFDSSTANNTTSNSASSSRSNSRNSSPRSLNDLTPKAALLRKRLRTKSLPNTIKQQYQQQQAVNSRNNSSSNSGSTTNNASSNTNTNNGQRSSMAPNDQTNGIYIQNLQEFHITNAMEGLNLLQKGLKHRQVASTKMNDFSSRSHTIFTITLYKKHQDELFRISKMNLVDLAGSENINRSGALNQRAKEAGSINQSLLTLGRVINALVDKSGHIPFRESKLTRLLQDSLGGNTKTALIATISPAKVTSEETCSTLEYASKAKNIKNKPQLGSFIMKDILVKNITMELAKIKSDLLSTKSKEGIYMSQDHYKNLNSDLESYKNEVQECKREIESLTSKNALLVKDKLKSKETIQSQNCQIESLKTTIDHLRAQLDKQHKTEIEISDFNNKLQKLTEVMQMALHDYKKRELDLNQKFEMHITKEIKKLKSTLFLQLNTMQQESILQETNIQPNLDMIKNEVLTLMRTMQEKAELMYKDCVKKILNESPKFFNVVIEKIDIIRVDFQKFYKNIAENLSDISEENNNMKQYLKNHFFKNNHQELLNRHVDSTYENIEKRTNEFVENFKKVLNDHLDENKKLIMQNLTTATSAVIDQEMDLFEPKRVKWENSFDLINDCDSMNNEFYNSMAATLSQIKSTVDTSSNSMNESISVMKGQVEESENAISLLKNNTKFNDQFEQLINKHNMLKDNIKNSITSTHSHITNVDDIYNTIENIMKNYGNKENATKDEMIENILKEIPNLSKKMPLRLSNINSNSVQSVISPKKHAIEDENKSSENVDNEGSRKMLKIE
